The values below come from article PMC3937224, “Convergence of Light and ABA Signaling on the ABI5 Promoter” (PLoS Genetics, 2014).

The exact form of at least one protein or probe is not confirmed. For some assays here: A negative result means that nothing was seen under these conditions. For some assays here: Weaker means in comparison with the reference protein, sequence or condition of that experiment. For some assays here: Protein sequences can lack the tags named with them.

In data set [1] the target is T1, GST-HY5 (Arabidopsis thaliana) (UniProt O24646).
T1 sequence (looked up): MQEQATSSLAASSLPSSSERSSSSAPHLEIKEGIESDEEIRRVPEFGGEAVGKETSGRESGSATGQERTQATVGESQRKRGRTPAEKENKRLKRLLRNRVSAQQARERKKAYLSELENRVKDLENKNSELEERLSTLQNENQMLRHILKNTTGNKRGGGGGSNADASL
Briefly: EMSA. Conditions: increasing 6xHis-BBX21 (lanes 2 to 6) decreases HY5 binding; 10 mM Tris-HCl (pH not stated), 150 mM KCl, 1 mM DTT, 50 ng/ml poly(dI-dC), 2.5% glycerol, 0.05% NP-40, 0.5 ug/ml BSA; recombinant protein; residues 1-168; protein details: N-terminal GST (pGEX-6P-1, printed pEGX-6P-1); label: 5' biotin. (A gel shift assay detects complexes by their altered migration in electrophoresis.)

Data set [2] relates to GST. Briefly: EMSA. Conditions: 0.5 ug protein; 10 mM Tris-HCl (pH not stated), 150 mM KCl, 1 mM DTT, 50 ng/ml poly(dI-dC), 2.5% glycerol, 0.05% NP-40, 0.5 ug/ml BSA; recombinant protein; label: 5' biotin.

“GATTCCGAACTTCCATTGGGAGTGCACGTGGACTATTCACTGCATAAGG (double strand) [ABI5 promoter probe]”: the values for the binding result in data set [1] and in data set [2] were “binds more weakly” and “no binding”, respectively.
